## Primary screen of a compound library

Measurements from “University of Dundee, Small-Polar-MMV Screening Library” (2021), ChEMBL document CHEMBL3988442.

Results are given as percent effect. How 0% and 100% were set is not recorded. Most values in the screen are low, and negative values occur. The compounds are a random part of those screened.

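Assay of Toxoplasma gondii numbers, read through their beta-galactosidase reporter with a colour substrate. Concentration: 50 µM. Higher reads as fewer parasites (inferred from which compounds were picked for retests). Of about 18,000 compounds tested this way, about 170 (0.94%) reached 50% or more in at least one test.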

compound	effect
CCCNC(=O)c1nnn(-c2ccccc2OC)c1C	3.299
NCc1ccc(-c2ccco2)o1	20.23
Cc1nc(C(=O)NCc2cccs2)ccc1C#N	13.74
Cc1nsc(N2CCN(c3ccccn3)CC2)n1	10.18
N#CCCN(Cc1ccco1)C(=O)c1cc(Cl)c[nH]1	39.43
NCC1CCN(c2cnn(CC3CCC3)c(=O)c2)CC1	8.35
CCNC(=O)COc1cccc2ccc(C)nc12	4.99
O=c1c2cccnc2ncn1CCOCC(F)F	2.707
CCSc1ccccc1NC(=O)NCCNC(C)=O	3.385
COc1ccc(CNC(=O)CCCc2cccs2)cn1	-7.013
COCC(N)c1ccco1 (stereo unspecified)	11.03
Cc1ccc(OCC(=O)NCCO)c(Br)c1	-0.7206
COc1cccc(C(C)N2CCCN(C(N)=O)CC2)c1 (stereo unspecified)	32.65
Cc1ccsc1C(=O)NCc1ccnc(N(C)C)c1	-0.9378
COc1ccc(CC(=O)N2CCN(C)CC2)c(OC)c1	22.99
COCCNC1(C(=O)NCC2CC2)CCCC1	-0.9879
COC(=O)C(C)Nc1ccc(C(N)=O)cc1 (stereo unspecified)	-13.84
CCCS(=O)(=O)N(C)CC(=O)N1CCC(C)CC1	4.673
C[C@@H]1CNC[C@H]1C(=O)N1CCOCC1	-6.411
NCCCNS(=O)(=O)CCc1ccccc1	-3.512
O=C(Nc1nc2c(s1)COCC2)c1cnsn1	-4.767
CC(C)C[C@H](N)C(=O)N(C)c1ccccc1	-2.862
CCC(N)(CC)CNS(=O)(=O)c1ccc2c(c1)CCO2	-2.355
Cc1nccc(CN)n1	-1.672
COc1cccc(CC2(O)CCNCC2)c1	1.087
COc1cccc(C(C)N2CCNCC2)c1 (stereo unspecified)	-0.2947
O=C(CC1C=CCC1)NCc1ccccn1 (stereo unspecified)	-4.879
Cc1cc(Cl)ccc1NC(=O)N[C@@H]1C[C@@H](CO)N(C)C1	-5.182
O=C(NCC(O)CO)Nc1ccccc1CC(F)(F)F (stereo unspecified)	-2.619
Cc1ccc(C2(O)CCN(c3nccs3)CC2)nc1	3.923
CC(=O)c1ccc(S(C)(=O)=O)c(N2CCC(C)(C)C2)c1	-1.181
CNCc1cc(C#N)ccc1F	1.871
CC(c1ccccn1)N1CCN(Cc2csnn2)CC1 (stereo unspecified)	0.5627
O=C(Cc1cnc[nH]c1=O)NCCCc1ccccn1	14.43
CCCn1cnnc1CNC	0.9072
CNC(=O)c1cccc(CN)n1	1.59
CCCS(=O)(=O)N1C[C@@H](CN(C)CCO)[C@@H](CO)C1	-1.891
CC(C)OCc1nnc(C(C)N)o1 (stereo unspecified)	0.7933
CCn1c(CN(C)CCCO)nnc1[C@H]1C[C@@H](N)C1	-8.796
CCS(=O)(=O)N1CCN(c2ccc(C(C)=O)cc2)CC1	-16.8
CC(C)CCNC(=O)c1cc2c([nH]c1=O)CCCC2=O	4.112
C=C(C)C(C)(C)C(=O)N[C@@H]1COCC[C@H]1O	16.24
O=C1CSC2(CCS(=O)(=O)C2)N1c1ccccc1 (stereo unspecified)	18.23
C=C(C)CCOC(=O)c1cc(C(N)=O)cs1	2.869
CC(=O)c1sc(NCCc2ccccn2)nc1C	-25.25
c1ccc(OCCCNCc2ccsc2)nc1	-0.06224
CC[C@H]1COCCN1C(=O)CCCn1cccn1	-3.99
CC1(C)CN(c2nccnc2C#N)CCS1(=O)=O	-1.06
Cn1ncnc1CS(=O)(=O)Cc1cccc(Cl)c1	-5.283
CCC(C)(CC)NC(=O)Nc1cnn(CCOC)c1	-4.406
COc1ccc(CCC(=O)NC2CC2)cc1OC	-2.75
Cc1ccc2nc(C(=O)N[C@@H]3CCCNC3)c(F)n2c1	-13.47
CC1CN(c2nccnc2C#N)CCN1 (stereo unspecified)	26.5
CNC(=O)c1cnn(-c2ccccc2)c1C1CC1	4.494
CC1(CO)COCCN1Cc1ccccc1 (stereo unspecified)	0.7173
CC(C)(CO)CNC(=O)c1c(O)cccc1F	-3.521
CN1CCC(N(C)C(=O)c2ccc(C#N)cc2)CC1	-3.283
Cc1nn(C)c(C)c1CCC(=O)NCC1CCCO1 (stereo unspecified)	6.47
CC(=O)NCC(=O)N1CCN(c2ccncc2Cl)CC1	-5.39
COc1ccccc1CCNC(=O)CN	-8.866
Cc1ccc(NC(=O)Cn2ccc(=O)n(C)c2=O)nc1	-6.184
NS(=O)(=O)c1ccc(NC(=O)N2CCCCC2)cc1	4.599
Cc1ccc(C2NCCNC2=O)cc1 (stereo unspecified)	-4.62
CN(CC1(O)CCCC1)c1ccc(C#N)nc1	11.64
CC(CN1CCOCC1)NC(=O)c1csc(Br)c1 (stereo unspecified)	-12.96
CC1(C)CN(C(=O)c2cccn2C2CC2)C[C@]1(C)O	9.63
Cn1cc(I)c(CN)n1	-11.01
Cc1noc(CCCC(=O)NC2CCCCNC2=O)n1 (stereo unspecified)	-4.763

Once more, the final 4:

CC(CN1CCOCC1)NC(=O)c1csc(Br)c1 (stereo unspecified) read -12.96%.
CC1(C)CN(C(=O)c2cccn2C2CC2)C[C@]1(C)O read 9.63%.
Cn1cc(I)c(CN)n1 read -11.01%.
Cc1noc(CCCC(=O)NC2CCCCNC2=O)n1 (stereo unspecified) read -4.763%.